Laboratory results reported in article PMC12040169 (PLOS Biology, 2025).
This is one part of the list.

These molecules were tested on T1, CTL2-GFP (C. trachomatis L2/434/Bu, GFP-expressing). Details: bulk GFP, single well; 28.5 h, 10 µM; inhibitor.
T1 construct: L2/434/Bu, GFP-expressing
Set-up: species or system HeLa; Intracellular C. trachomatis growth in HeLa cells, bulk GFP fluorescence relative to DMSO

Row | SMILES | % of control remaining [%]
1 | CC(=O)N1CCCc2cc(C(O)CN3CCC(C)CC3)ccc21 (stereo not shown) [CBK282588] | 119.273
2 | COc1ccc(-c2ccc3c(c2)C(=O)N2CC[C@H](N)C[C@H]2C(=O)N3)c(OC)c1 [CBK289560] | 100.298
3 | Cc1ccc(-c2nccnc2OCCC(C)C)c(C)c1 [CBK106988] | 124.086
4 | Cc1nc(C)c(C(=O)N2CCC(c3cc4cccnc4[nH]3)CC2)s1 [CBK284998] | 97.402
5 | N#Cc1ccc(Cn2nc(NC(=O)c3ccco3)c3ccccc32)cc1 [CBK048260] | 100
6 | COc1cc2c(cc1OC)CN(C(=O)CSc1nc3c(c(-c4cccs4)c1C#N)CN(C)CC3)CC2 [CBK267462] | 116.577
7 | CCNS(=O)(=O)c1ccc(NS(=O)(=O)Cc2ccccc2)cc1 [CBK268257] | 127.736
8 | C=CCn1cc(CN(CCN(C)C)Cc2ccc(C)o2)c(C)n1 [CBK282844] | 107.819
9 | FC(F)(F)C1=NC(C(F)(F)F)=NP(N2CCOCC2)(N2CCOCC2)=N1 [CBK261042] | 103.438
10 | CCCCN(C)S(=O)(=O)NCCc1cn2ccccc2n1 [CBK304543] | 98.9915
11 | C=CCNCc1cc2c(C)nn(-c3ccc(F)cc3)c2[nH]c1=O [CBK283117] | 77.5513
12 | CN1CCN(c2ccccc2NC(=O)CSc2ccc(Cl)cc2)CC1 [CBK267941] | 117.003
13 | CCOCCc1nsc(NS(=O)(=O)c2cccc(Cl)c2C)n1 [CBK034245] | 100
14 | O=C(O)c1ccccc1C(=O)OCCN1CCOCC1 [CBK261462] | 125.523
15 | O=C(Cc1ccc(Cl)c(Cl)c1)NCCc1c[nH]c2ccc(Cl)cc12 [CBK159749] | 109.444
16 | C=CCNc1nc(NCCN2CCOCC2)nc(N2CCOCC2)n1 [CBK263074] | 101.159
17 | O=C(O)CNS(=O)(=O)c1c(F)c(F)c(F)c(F)c1F [CBK269986] | 140.403
18 | COc1ccc2[nH]cc([C@@H]3CCC[C@H](NC(=O)C4CCCO4)C3)c2c1 (stereo partly shown) [CBK284699] | 93.8602
19 | O=C(c1cncnc1)N1CC[C@H](c2nc3cc(F)ccc3[nH]2)C1 [CBK289376] | 124.599
20 | Cc1ccc(S(=O)(=O)N2CCSC2C(=O)O)cc1 (stereo not shown) [CBK286964] | 86.32
21 | O=C(O)c1ccccc1C(=O)N1CCN(Cc2ccc3c(c2)OCO3)CC1 [CBK074751] | 87.697
22 | COc1ccccc1-c1cn2ccnc2c(Nc2cccc(Cl)c2)n1 [CBK066399] | 185.493
23 | Cc1ccc(C2(C(=O)N3CCCC3)CCN(S(=O)(=O)c3ccc(C)cc3)CC2)cc1 [CBK008752] | 116.906
24 | Cc1csc(C(Cc2ccsc2)NC(=O)Cc2ccccn2)n1 (stereo not shown) [CBK285097] | 130.543
25 | CCn1c(C)nc2cc(NC(=O)c3ccc(CN(C)C)cc3)ccc21 [CBK281880] | 169.262
26 | O=c1sn(C2CCCCC2)c(=O)n1Cc1ccc(F)cc1 [CBK113604] | 108.84

Single values from the results shown:
CCCCN(C)S(=O)(=O)NCCc1cn2ccccc2n1 [CBK304543] – % of control remaining [%]: 98.9915
N#Cc1ccc(Cn2nc(NC(=O)c3ccco3)c3ccccc32)cc1 [CBK048260] – % of control remaining [%]: 100
CCNS(=O)(=O)c1ccc(NS(=O)(=O)Cc2ccccc2)cc1 [CBK268257] – % of control remaining [%]: 127.736
CC(=O)N1CCCc2cc(C(O)CN3CCC(C)CC3)ccc21 (stereo not shown) [CBK282588] – % of control remaining [%]: 119.273

Next records:

Row | SMILES | % of control remaining [%]
27 | O=C(O)c1nccnc1-c1ccc(COc2cccc3ccccc23)cc1 [CBK050810] | 105.76
28 | COc1cc(NC(=O)CC2(CC(=O)O)CCCCC2)ccc1N1CCCC1=O [CBK296637] | 103.222
29 | Cc1cc(C2CCCN2C(=O)c2ccc(C(F)(F)F)nc2)on1 (stereo not shown) [CBK305761] | 92.5204
30 | O=C(Nc1ccccn1)c1cnn(-c2ccc(Cl)cc2)c1C(F)(F)F [CBK107442] | 83.4468
31 | COc1cc2c(cc1NC(=O)CN(C)S(=O)(=O)c1ccc(Cl)cc1)oc1ccccc12 [CBK267404] | 135.691
32 | Cn1c(N2CC[C@H](O)C2)nc2cc(C(=O)NCCC3CCCC3)ccc21 [CBK307447] | 152.538
33 | Cc1ccc2ncnc(NCCCCCC(=O)O)c2c1 [CBK287256] | 123.772
34 | CC(=O)Nc1ccc(S(=O)(=O)N(C)c2ccccn2)cc1Cl [CBK044789] | 128.598
35 | O=c1oc(-c2cccnc2)nn1Cc1ccccc1F [CBK283774] | 143.018
36 | Cc1ccccc1OCc1nnc(SCC(N)=O)n1-c1ccccc1 [CBK268808] | 128.279
37 | O=C(c1csnn1)N1CCc2ccccc21 [CBK200408] | 118.383
38 | Cc1ccc(NC(=O)c2cc(C)[nH]n2)c(C)n1 [CBK200387] | 115.072
39 | O=C(Nc1nc2ccccc2s1)c1cnccn1 [CBK058664] | 126.443
40 | CC(C)[C@@H](CO)Nc1nc(-c2ccc(S(C)(=O)=O)cc2)cnc1N [CBK063750] | 161.238
41 | CC(C)(C)C1CCc2c(sc(NC(=S)NC(=O)COc3ccccc3)c2C(N)=O)C1 (stereo not shown) [CBK268634] | 155.367
42 | O=C(Nc1ccc2[nH]c(=O)[nH]c2c1)c1ccc2[nH]ccc2c1 [CBK149083] | 98.8881
43 | CC(C)[C@H](CO)Nc1nccnc1-c1ccccc1CO [CBK037408] | 113.595
44 | CNC(=O)C1/C(=N\O)c2ccccc2N1C(C)=O (stereo not shown) [CBK006569] | 105.748
45 | Cc1nc(NCCc2cnc(=O)n(C)c2O)cc(C2CCOC2)n1 (stereo not shown) [CBK307559] | 98.3416
46 | CCN(CC)CC(C)C(O)(c1ccc(Cl)cc1)c1ccc(Cl)cc1 (stereo not shown) [CBK012146C] | 118.53
47 | COc1cc(C2C3=C(CC(C)(C)CC3=O)OC3=C2C(=O)CC(C)(C)C3)ccc1OCC(=O)O [CBK262379] | 121.439
48 | CCCCOc1nccnc1-c1ccc(C)c(C)c1 [CBK106870] | 100
49 | Cc1ccc(C(C)(C)C)c(OC(=O)c2cnc(C)cn2)c1 [CBK090261] | 105.626
50 | CN(C)CCCC(=O)NCc1ccc(-c2csnn2)cc1 [CBK149288] | 144.442
51 | O=C(Nc1ccc(CCO)cc1)c1cnc(-c2ccc(Cl)cc2)c(-c2ccco2)c1 [CBK037457] | 141.558
52 | Cc1c(O)cccc1Nc1cc(-c2cccc(N(C)C)c2)ncn1 [CBK036995] | 140.692
